Data: publication PMC6868236
No constants are given. Whether binding was seen depends on the method and setting. In cells and extracts the contact can be indirect. Some entries that bind do so weakly or less than the wild type. Where a sequence is shown, tags or fusion partners need not be part of it. Blank lines part the entries; values can stand above or below the molecule they belong to.

The chains behind the UniProt entries cited, without tags or fusion partners.
UniProt P35177: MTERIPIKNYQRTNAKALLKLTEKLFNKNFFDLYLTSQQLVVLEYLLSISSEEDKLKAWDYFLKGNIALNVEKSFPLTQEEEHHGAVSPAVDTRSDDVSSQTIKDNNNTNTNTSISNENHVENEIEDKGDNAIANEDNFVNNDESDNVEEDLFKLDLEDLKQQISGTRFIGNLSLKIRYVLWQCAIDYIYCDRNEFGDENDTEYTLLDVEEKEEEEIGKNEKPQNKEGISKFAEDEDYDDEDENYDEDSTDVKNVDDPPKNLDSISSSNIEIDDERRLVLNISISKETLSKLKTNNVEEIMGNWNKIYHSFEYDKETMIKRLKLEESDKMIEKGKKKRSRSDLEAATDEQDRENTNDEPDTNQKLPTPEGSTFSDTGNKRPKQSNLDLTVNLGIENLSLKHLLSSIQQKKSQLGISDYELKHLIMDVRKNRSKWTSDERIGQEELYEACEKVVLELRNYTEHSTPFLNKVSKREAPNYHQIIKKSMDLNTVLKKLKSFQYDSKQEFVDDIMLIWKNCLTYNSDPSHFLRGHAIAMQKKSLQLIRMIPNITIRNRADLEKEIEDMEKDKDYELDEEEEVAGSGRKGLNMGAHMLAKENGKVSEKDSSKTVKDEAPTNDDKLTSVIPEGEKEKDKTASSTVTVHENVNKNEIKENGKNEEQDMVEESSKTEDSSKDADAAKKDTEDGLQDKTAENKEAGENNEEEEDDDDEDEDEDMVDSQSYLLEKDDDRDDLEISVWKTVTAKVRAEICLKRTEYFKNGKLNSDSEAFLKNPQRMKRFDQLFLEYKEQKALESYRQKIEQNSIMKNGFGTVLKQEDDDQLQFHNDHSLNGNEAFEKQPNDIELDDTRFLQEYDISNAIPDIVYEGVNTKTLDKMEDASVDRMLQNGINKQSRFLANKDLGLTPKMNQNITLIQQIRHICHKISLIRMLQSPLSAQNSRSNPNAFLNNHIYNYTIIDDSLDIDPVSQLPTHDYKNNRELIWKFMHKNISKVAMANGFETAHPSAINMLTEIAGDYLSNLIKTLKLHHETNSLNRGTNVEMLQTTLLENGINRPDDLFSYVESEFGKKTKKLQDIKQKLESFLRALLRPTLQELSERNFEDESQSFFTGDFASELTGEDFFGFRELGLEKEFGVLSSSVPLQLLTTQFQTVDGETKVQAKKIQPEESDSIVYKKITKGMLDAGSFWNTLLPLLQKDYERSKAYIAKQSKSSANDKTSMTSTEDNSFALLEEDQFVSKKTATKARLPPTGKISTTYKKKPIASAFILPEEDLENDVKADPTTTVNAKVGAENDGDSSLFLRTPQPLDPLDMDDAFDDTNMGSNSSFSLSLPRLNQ
UniProt Q9HFE8: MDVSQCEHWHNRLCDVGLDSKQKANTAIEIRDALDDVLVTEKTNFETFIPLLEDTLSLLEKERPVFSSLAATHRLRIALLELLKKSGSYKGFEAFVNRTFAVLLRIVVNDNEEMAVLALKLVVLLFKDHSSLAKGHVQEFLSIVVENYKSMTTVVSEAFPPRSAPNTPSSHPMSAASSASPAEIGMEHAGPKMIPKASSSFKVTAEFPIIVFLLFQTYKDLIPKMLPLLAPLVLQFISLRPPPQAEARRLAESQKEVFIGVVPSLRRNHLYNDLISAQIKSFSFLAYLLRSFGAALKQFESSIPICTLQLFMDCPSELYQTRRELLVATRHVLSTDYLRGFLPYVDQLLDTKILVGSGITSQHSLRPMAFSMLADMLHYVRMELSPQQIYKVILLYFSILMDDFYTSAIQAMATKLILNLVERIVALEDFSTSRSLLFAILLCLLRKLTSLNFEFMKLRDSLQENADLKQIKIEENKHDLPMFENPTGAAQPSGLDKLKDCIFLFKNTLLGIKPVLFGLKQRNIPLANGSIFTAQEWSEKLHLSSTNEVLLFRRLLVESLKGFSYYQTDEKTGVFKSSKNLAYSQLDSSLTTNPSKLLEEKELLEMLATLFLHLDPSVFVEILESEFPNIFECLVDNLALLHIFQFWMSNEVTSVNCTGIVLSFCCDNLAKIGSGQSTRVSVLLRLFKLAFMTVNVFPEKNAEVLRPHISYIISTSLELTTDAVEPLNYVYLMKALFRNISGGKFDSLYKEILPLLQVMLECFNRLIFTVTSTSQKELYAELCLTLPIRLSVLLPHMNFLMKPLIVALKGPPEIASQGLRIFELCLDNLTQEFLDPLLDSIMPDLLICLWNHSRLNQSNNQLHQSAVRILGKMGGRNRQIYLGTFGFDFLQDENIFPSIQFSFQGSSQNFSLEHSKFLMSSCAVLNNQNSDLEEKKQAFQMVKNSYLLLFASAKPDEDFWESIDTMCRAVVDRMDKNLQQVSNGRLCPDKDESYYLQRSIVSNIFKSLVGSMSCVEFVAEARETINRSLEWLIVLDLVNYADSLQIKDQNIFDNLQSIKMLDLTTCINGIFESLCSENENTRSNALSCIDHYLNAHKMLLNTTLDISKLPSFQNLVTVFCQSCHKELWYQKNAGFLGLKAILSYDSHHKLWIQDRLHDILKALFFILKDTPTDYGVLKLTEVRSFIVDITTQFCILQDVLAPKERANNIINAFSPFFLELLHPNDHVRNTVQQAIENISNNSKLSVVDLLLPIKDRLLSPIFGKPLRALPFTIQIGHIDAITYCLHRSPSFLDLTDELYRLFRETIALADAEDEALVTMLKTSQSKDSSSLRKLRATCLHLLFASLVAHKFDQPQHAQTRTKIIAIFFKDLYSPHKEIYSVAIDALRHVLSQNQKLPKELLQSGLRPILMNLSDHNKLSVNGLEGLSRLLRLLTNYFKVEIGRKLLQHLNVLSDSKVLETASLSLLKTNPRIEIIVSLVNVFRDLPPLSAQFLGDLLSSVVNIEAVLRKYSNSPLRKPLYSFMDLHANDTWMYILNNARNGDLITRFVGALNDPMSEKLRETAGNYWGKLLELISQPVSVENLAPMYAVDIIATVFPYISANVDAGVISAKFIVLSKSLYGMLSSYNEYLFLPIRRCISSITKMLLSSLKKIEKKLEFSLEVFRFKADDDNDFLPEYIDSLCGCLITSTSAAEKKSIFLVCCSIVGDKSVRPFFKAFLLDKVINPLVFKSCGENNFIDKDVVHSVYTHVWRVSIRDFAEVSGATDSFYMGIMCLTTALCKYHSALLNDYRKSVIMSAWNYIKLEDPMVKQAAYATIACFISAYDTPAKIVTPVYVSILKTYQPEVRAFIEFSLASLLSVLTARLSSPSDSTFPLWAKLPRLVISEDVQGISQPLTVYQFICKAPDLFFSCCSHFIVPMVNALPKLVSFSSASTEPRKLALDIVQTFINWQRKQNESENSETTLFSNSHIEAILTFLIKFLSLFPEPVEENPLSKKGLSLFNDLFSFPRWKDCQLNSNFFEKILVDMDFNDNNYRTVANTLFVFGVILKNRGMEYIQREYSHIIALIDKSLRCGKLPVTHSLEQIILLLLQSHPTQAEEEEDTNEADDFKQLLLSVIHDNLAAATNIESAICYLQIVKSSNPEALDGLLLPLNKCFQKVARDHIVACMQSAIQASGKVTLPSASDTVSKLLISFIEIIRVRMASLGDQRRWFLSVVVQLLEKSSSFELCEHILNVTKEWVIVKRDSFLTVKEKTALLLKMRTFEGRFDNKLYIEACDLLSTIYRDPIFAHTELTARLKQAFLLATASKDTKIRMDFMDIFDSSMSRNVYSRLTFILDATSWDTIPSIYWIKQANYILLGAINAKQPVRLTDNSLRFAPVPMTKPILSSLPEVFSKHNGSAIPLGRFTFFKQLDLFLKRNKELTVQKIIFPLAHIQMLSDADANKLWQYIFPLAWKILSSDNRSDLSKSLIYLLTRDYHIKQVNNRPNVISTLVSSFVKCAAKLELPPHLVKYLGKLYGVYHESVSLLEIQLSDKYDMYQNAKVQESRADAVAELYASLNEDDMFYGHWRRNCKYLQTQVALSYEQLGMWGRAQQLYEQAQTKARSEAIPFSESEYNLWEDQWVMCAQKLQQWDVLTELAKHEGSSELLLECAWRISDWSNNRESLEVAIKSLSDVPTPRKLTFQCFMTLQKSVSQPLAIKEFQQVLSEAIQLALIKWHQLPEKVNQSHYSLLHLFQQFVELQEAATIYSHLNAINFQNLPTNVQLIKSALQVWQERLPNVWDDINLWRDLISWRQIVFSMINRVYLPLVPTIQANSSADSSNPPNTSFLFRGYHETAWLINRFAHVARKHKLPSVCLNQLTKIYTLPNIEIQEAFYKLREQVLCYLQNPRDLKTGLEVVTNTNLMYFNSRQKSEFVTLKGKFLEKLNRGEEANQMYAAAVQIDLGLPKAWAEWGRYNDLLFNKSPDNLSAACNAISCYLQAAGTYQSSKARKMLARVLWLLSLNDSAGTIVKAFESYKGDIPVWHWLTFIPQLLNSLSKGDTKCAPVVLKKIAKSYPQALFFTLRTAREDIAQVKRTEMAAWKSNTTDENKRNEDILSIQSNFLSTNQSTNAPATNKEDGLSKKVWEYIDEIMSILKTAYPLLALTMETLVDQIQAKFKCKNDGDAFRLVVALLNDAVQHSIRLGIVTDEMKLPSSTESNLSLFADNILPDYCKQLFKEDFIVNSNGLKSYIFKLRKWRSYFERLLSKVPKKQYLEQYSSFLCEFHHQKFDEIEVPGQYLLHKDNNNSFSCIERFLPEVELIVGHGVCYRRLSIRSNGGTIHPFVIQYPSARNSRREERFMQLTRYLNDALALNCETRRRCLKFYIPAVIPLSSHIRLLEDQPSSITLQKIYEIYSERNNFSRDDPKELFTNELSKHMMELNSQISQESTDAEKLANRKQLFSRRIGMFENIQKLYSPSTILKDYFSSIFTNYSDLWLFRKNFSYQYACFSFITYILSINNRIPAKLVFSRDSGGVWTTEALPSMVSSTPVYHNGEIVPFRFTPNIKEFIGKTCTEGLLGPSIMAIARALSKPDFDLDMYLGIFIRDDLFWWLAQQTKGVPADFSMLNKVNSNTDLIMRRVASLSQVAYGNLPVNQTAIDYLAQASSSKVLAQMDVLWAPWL

What was measured:
[1] = biological target: T1, GST fused to S. cerevisiae (Sc) Spt20 HIT region (residues 468–537) (S. cerevisiae) (UniProt P50875); test: pull-down; GST or GST-HIT on Glutathione Sepharose 4B beads incubated overnight at 4 °C with 5–10 mg of S. pombe protein extracts in WEB lysis buffer (40 mM HEPES-NaOH pH 7.4, 350 mM NaCl, 0.1% NP40, 10% glycerol); anti-FLAG western blot; only the target purified
T1 sequence: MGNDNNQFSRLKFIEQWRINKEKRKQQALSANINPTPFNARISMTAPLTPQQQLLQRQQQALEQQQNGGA

[2] = biological target: T2, GST fused to S. pombe (Sp) Spt20 HIT region (residues 282–324) (S. pombe) (UniProt O14174); test: as above
T2 sequence: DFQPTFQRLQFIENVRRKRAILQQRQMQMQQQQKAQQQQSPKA

[3] = biological target: HA-Spt7-TAP (S. cerevisiae) (S. cerevisiae) (UniProt P35177); test: co-IP; S. cerevisiae SAGA eluates purified by HA-Spt7-TAP, anti-V5 western blot of Spt20 truncation mutants

Molecule: FLAG-Tra1 (S. pombe, wild type) (from UniProt Q9HFE8 1-3661)
binding [1]: binds
binding [2]: binds

B3: Spt20-408 (S. cerevisiae Spt20 truncation, V5-tagged) (domain or fragment, UniProt P50875 1-408)
chain: MSANSPTGNDPHVFGIPVNATPSNMGSPGSPVNVPPPMNPAVANVNHPVMRTNSNSNANEGTRTLTREQIQQLQQRQRLLLQQRLLEQQRKQQALQNYEAQFYQMLMTLNKRPKRLYNFVEDADSILKKYEQYLHSFEFHIYENNYKICAPANSRLQQQQKQPELTSDGLILTKNNETLKEFLEYVARGRIPDAIMEVLRDCNIQFYEGNLILQVYDHTNTVDVTPKENKPNLNSSSSPSNNNSTQDNSKIQQPSEPNSGVANTGANTANKKASFKRPRVYRTLLKPNDLTTYYDMMSYADNARFSDSIYQQFESEILTLTKRNLSLSVPLNPYEHRDMLEETAFSEPHWDSEKKSFIHEHRAESTREGTKGVVGHIEERDEFPQHSSNYEQLMLIMNERTTTITNST
binding [3]: binds

B4: Spt20-380 (S. cerevisiae Spt20 truncation, V5-tagged) (domain or fragment, UniProt P50875 1-380)
chain: MSANSPTGNDPHVFGIPVNATPSNMGSPGSPVNVPPPMNPAVANVNHPVMRTNSNSNANEGTRTLTREQIQQLQQRQRLLLQQRLLEQQRKQQALQNYEAQFYQMLMTLNKRPKRLYNFVEDADSILKKYEQYLHSFEFHIYENNYKICAPANSRLQQQQKQPELTSDGLILTKNNETLKEFLEYVARGRIPDAIMEVLRDCNIQFYEGNLILQVYDHTNTVDVTPKENKPNLNSSSSPSNNNSTQDNSKIQQPSEPNSGVANTGANTANKKASFKRPRVYRTLLKPNDLTTYYDMMSYADNARFSDSIYQQFESEILTLTKRNLSLSVPLNPYEHRDMLEETAFSEPHWDSEKKSFIHEHRAESTREGTKGVVGHIEER
binding [3]: binds

Further lines, results first:

binding [3]: binds
B1: Spt20-474 (S. cerevisiae Spt20 truncation, V5-tagged) (domain or fragment, UniProt P50875 1-474)
chain: MSANSPTGNDPHVFGIPVNATPSNMGSPGSPVNVPPPMNPAVANVNHPVMRTNSNSNANEGTRTLTREQIQQLQQRQRLLLQQRLLEQQRKQQALQNYEAQFYQMLMTLNKRPKRLYNFVEDADSILKKYEQYLHSFEFHIYENNYKICAPANSRLQQQQKQPELTSDGLILTKNNETLKEFLEYVARGRIPDAIMEVLRDCNIQFYEGNLILQVYDHTNTVDVTPKENKPNLNSSSSPSNNNSTQDNSKIQQPSEPNSGVANTGANTANKKASFKRPRVYRTLLKPNDLTTYYDMMSYADNARFSDSIYQQFESEILTLTKRNLSLSVPLNPYEHRDMLEETAFSEPHWDSEKKSFIHEHRAESTREGTKGVVGHIEERDEFPQHSSNYEQLMLIMNERTTTITNSTFAVSLTKNAMEIASSSSNGVRGASSSTSNSASNTRNNSLANGNQVALAAAAAAAAVGSTMGNDNNQ

binding [3]: binds
B2: Spt20-492 (S. cerevisiae Spt20 truncation, V5-tagged) (domain or fragment, UniProt P50875 1-492)
chain: MSANSPTGNDPHVFGIPVNATPSNMGSPGSPVNVPPPMNPAVANVNHPVMRTNSNSNANEGTRTLTREQIQQLQQRQRLLLQQRLLEQQRKQQALQNYEAQFYQMLMTLNKRPKRLYNFVEDADSILKKYEQYLHSFEFHIYENNYKICAPANSRLQQQQKQPELTSDGLILTKNNETLKEFLEYVARGRIPDAIMEVLRDCNIQFYEGNLILQVYDHTNTVDVTPKENKPNLNSSSSPSNNNSTQDNSKIQQPSEPNSGVANTGANTANKKASFKRPRVYRTLLKPNDLTTYYDMMSYADNARFSDSIYQQFESEILTLTKRNLSLSVPLNPYEHRDMLEETAFSEPHWDSEKKSFIHEHRAESTREGTKGVVGHIEERDEFPQHSSNYEQLMLIMNERTTTITNSTFAVSLTKNAMEIASSSSNGVRGASSSTSNSASNTRNNSLANGNQVALAAAAAAAAVGSTMGNDNNQFSRLKFIEQWRINKEKRK
